Values joined by “and” are separate entries in the source; they are usually repeats but may differ in a detail not shown here. Equal entries are not always repeated. The shares of active, inactive and inconclusive entries below differ from those in the screen. For some of these results: Potencies beside an inconclusive call are fits to weak or partial responses and may not hold up. More than one record can exist for a structure, and the calls need not agree. Active and inactive are the calls of the source. Rule for the calls: active = hit-call score of the fitted dose curve at least 0.9, where 1 is the maximum; inconclusive = response in the unintended direction; inactive = score below 0.9.
Key:
[1] = biological target: Bile acid receptor (Homo sapiens) (UniProt Q96RI1); assay: ATG_FXR_TRANS: Attagene TRANS-FACTORIAL HepG2 Assay for Farnesoid X Receptor (FXR) (AID 2282979); settings: HepG2 Attagene TRANS FXR-GAL4 reporter transcription;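 note: hits raise reporter mRNA above DMSO so AC50 marks FXR activation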
Method in brief: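 Read-out: fluorescent reporter transcripts quantified by capillary electrophoresis after RT-PCR of total RNA. Source cells were HepG2 transiently carrying chimeric NR-GAL4 plus GAL4-UAS reporter units, dosed 24 h. Activity fitted upward relative to DMSO baseline.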

Amino acid sequences for entries named in this document (tags omitted). A change or cut given only in a name is not applied to a line headed by its entry.
UniProt Q96RI1: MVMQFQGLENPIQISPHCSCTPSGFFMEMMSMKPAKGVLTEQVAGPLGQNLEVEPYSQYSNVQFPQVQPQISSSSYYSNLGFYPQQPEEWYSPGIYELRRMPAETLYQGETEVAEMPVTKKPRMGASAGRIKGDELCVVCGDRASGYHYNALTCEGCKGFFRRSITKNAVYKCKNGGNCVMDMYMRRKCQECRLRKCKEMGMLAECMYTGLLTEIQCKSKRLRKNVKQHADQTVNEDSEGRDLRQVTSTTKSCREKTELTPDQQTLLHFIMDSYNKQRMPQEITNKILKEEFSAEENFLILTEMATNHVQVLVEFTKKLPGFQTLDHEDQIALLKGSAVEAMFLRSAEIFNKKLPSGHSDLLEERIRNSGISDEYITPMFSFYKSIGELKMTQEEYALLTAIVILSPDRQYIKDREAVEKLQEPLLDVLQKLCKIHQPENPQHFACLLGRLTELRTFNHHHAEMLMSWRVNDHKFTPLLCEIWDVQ
UniProt P19793: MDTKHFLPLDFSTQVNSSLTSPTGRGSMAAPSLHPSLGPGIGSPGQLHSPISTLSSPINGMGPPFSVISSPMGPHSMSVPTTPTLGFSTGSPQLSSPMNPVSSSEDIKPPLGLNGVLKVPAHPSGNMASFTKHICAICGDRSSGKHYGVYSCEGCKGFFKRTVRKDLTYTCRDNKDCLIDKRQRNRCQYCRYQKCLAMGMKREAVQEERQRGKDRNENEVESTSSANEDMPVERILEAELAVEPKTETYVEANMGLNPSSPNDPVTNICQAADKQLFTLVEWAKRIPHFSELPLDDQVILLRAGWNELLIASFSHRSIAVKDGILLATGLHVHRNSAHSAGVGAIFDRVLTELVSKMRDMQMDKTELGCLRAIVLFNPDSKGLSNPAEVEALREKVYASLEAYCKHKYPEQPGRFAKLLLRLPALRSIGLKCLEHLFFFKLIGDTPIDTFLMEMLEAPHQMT
UniProt Q01717: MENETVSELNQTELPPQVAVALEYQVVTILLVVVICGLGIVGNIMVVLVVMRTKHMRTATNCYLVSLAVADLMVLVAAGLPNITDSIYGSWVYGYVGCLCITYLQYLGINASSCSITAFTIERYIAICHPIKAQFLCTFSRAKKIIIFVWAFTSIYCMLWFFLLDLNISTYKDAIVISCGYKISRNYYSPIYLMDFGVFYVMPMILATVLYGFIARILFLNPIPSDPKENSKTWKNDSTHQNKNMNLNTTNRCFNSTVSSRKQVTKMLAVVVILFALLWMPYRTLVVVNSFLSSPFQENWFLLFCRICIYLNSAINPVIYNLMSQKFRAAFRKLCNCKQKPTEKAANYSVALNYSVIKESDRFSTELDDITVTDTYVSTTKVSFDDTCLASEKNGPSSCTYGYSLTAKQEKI
UniProt P04150: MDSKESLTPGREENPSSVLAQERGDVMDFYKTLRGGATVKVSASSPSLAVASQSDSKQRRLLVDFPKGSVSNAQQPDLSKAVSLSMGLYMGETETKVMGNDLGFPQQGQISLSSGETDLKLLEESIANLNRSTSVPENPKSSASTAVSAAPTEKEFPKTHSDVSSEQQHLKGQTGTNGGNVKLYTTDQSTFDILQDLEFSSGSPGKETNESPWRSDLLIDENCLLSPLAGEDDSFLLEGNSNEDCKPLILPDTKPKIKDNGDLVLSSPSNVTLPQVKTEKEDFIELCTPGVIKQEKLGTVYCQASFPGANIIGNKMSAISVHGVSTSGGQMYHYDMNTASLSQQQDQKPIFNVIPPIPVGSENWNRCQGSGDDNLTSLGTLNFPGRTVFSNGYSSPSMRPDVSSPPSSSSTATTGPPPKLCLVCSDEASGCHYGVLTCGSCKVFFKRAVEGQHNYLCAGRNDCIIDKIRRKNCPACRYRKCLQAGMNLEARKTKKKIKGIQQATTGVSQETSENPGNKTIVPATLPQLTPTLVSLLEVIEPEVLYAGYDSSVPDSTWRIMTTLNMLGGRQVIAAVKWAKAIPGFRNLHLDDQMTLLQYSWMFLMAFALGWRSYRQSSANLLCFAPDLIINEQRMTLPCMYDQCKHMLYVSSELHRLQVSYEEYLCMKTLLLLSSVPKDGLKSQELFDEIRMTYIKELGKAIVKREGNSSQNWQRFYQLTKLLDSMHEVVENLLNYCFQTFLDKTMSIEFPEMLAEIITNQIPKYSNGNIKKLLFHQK
UniProt Q03181: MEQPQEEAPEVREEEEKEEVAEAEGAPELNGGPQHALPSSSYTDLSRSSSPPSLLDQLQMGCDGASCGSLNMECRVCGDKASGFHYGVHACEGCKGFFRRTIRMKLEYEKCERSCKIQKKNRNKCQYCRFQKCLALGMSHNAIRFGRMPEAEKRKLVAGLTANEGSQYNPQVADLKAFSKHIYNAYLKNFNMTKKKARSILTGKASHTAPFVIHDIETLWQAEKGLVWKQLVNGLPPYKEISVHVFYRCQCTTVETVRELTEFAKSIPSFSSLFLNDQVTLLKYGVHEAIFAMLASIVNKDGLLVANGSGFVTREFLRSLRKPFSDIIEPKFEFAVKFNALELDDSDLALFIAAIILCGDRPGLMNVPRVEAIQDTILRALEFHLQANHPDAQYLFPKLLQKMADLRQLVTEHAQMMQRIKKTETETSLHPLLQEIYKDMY
UniProt P11473: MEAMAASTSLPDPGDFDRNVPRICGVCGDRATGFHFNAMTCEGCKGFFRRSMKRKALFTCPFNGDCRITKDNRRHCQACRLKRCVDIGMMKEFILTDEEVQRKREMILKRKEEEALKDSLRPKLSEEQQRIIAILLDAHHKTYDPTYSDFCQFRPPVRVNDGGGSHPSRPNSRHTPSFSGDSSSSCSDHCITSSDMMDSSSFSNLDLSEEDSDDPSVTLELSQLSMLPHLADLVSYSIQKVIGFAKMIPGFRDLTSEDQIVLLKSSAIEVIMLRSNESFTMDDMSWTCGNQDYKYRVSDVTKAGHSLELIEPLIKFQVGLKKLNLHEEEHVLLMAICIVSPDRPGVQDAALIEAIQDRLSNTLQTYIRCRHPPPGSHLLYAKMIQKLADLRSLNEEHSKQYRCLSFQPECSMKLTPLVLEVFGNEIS
UniProt O75469: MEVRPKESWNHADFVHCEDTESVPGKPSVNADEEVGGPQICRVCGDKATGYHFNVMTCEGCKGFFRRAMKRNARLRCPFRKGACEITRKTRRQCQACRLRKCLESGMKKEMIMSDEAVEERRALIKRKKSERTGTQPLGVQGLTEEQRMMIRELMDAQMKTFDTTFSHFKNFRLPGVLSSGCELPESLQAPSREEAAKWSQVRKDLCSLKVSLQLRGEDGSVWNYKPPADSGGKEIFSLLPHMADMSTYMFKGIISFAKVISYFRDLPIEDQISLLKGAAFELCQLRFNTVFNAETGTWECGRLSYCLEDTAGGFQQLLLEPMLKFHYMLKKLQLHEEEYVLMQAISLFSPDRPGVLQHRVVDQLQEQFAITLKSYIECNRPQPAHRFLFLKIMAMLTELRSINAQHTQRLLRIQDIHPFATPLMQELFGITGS
UniProt P04637, whole entry, looked up: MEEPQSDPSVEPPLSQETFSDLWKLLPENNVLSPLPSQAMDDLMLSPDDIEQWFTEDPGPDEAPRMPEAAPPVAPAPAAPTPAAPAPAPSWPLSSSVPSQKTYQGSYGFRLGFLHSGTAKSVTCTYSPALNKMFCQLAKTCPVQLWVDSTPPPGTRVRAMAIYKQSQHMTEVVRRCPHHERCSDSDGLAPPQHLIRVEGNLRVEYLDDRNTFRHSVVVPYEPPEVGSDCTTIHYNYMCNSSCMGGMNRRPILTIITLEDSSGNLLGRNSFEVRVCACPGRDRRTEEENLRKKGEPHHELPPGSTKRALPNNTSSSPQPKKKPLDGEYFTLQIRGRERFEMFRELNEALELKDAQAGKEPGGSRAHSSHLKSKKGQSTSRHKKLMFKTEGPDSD

[2] = ATG_M_06_TRANS: Attagene TRANS-FACTORIAL HepG2 Assay for M06 Transcription Factor (Internal Marker) (AID 2282983); settings: HepG2 Attagene TRANS M06 internal marker reporter;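 for AC50: potency for rise in reporter mRNA above DMSO baseline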;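 for outcome: reporter transcript level by RT-PCR then capillary electrophoresis fluorescence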
Method in brief: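 After a 24 h chemical treatment of transfected HepG2, RNA underwent DNase I treatment, reverse transcription and reporter-specific PCR; labelled, HpaI-digested products were sized by capillary electrophoresis. Signal increase relative to DMSO defined activity.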

[3] = ATG_M_32_TRANS: Attagene TRANS-FACTORIAL HepG2 Assay for M32 Transcription Factor (Internal Marker) (AID 2282984); settings: HepG2 Attagene TRANS M32 internal marker reporter;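 for outcome: transcript level of a background control reporter unit measured by RT-PCR and capillary electrophoresis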
Method in brief: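 Capillary electrophoresis of 6-FAM-labelled reporter fragments gives the signal; data fitted for gain over DMSO negative control. Source: HepG2 cells bearing transient multiple reporter transcription units, 24 h exposure.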

[4] = biological target: Retinoic acid receptor RXR-alpha (Homo sapiens) (UniProt P19793); assay: ATG_RXRa_TRANS: Attagene TRANS-FACTORIAL HepG2 Assay for human Retinoid X Receptor alpha (RXRa) (AID 2283012)
Method in brief: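 HepG2 cells transiently transfected with multiplexed GAL4-UAS reporter units and chimeric NR-GAL4 fusions, dosed 24 h. Reporter mRNA measured by RT-PCR, FAM labelling, HpaI digestion and capillary electrophoresis; gain-of-signal fitted relative to DMSO baseline.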

[5] = biological target: rat Thyrotropin Releasing Hormone Receptor (TRH), Trhr (gene 25570) (UniProt Q01717); assay: NVS_GPCR_rTRH: NovaScreen (NVS) G Protein-Coupled Receptor Assay for rat Thyrotropin Releasing Hormone Receptor (TRH) (AID 2283329);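 note: hit means lower bound tracer signal versus DMSO baseline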
Method in brief: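 Cell-free radioligand binding on rat forebrain membranes; bound tracer measured by filter-based scintillation counting 4 hours after dosing. Loss of signal versus DMSO baseline indicates displacement; primary screen at 25 uM in duplicate, actives then run in concentration series.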

[6] = CCTE_Deisenroth_AIME_384WELL_CTox_Inactive: Cytotoxicity Assessment (CTOX) in CCTE's 384-well Estrogen Receptor Transactivation Assay without AIME metabolic competence (metabolism negative), Deisenroth Lab (AID 2284039);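 note: cell viability via live-cell protease substrate cleaved to fluorescent probe; cells exposed 24 h to medium preincubated 2 h with alginate-water beads without S9; loss of fluorescence signal means loss of viability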
Method in brief: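 VM7Luc4E2 human breast cells received conditioned medium from a 2 h incubation of chemical with alginate-water microspheres (no S9), then were exposed 24 h. Viability was read as protease-substrate cleavage to a fluorescent probe; loss of signal was fitted bidirectionally over 0.002–200 uM.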

[7] = biological target: Glucocorticoid receptor (Homo sapiens) (UniProt P04150); assay: ATG_GR_TRANS: Attagene TRANS-FACTORIAL HepG2 Assay for human Glucocorticoid Receptor (GR) (AID 2282978); settings: HepG2 Attagene TRANS GR reporter, mRNA transcription;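 note: activators score as hits since higher reporter transcript over DMSO is fitted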
Method in brief: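 HepG2 cells transiently transfected with GAL4-UAS reporter units and exogenous GR-Gal4 chimera, dosed 24 h. Reporter mRNA by RT-PCR, FAM labeling, HpaI digest and capillary electrophoresis; gain-of-signal fit versus DMSO.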

[8] = biological target: human Peroxisome Proliferator-activated Receptor delta (PPARd), PPARD (gene 5467) (UniProt Q03181); assay: ATG_PPARd_TRANS: Attagene TRANS-FACTORIAL HepG2 Assay for human Peroxisome Proliferator-activated Receptor delta (PPARd) (AID 2283002)
Method in brief: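 HepG2 cells transiently transfected with GAL4-UAS multiplexed reporter units driven by exogenous chimeric NR-GAL4 proteins; 24 h compound exposure. Reporter mRNA measured by RT-PCR, 6-FAM primer extension, HpaI digestion and capillary electrophoresis; gain of signal fitted relative to DMSO.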

[9] = biological target: human Vitamin D Receptor (VDR), VDR (gene 7421) (UniProt P11473); assay: ATG_VDR_TRANS: Attagene TRANS-FACTORIAL HepG2 Assay for human Vitamin D Receptor (VDR) (AID 2283022)
Method in brief: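 RT-PCR/capillary electrophoresis read-out of reporter mRNA induction in transiently transfected HepG2; 24 h dosing; chimeric NR-Gal4 (TRANS format); gain-of-signal fit against DMSO baseline.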

[10] = biological target: Nuclear receptor subfamily 1 group I member 2 (Homo sapiens) (UniProt O75469); assay: NVS_NR_hPXR: NovaScreen (NVS) Nuclear Receptor Binding Assay for human Pregnane X Receptor (PXR) (AID 2283365);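 note: a drop in FRET signal versus DMSO baseline means the compound binds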
Method in brief: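 TR-FRET signal read at 2 h in a cell-free human PXR binding format. DMSO served as negative control and baseline; activity scored as signal loss. Single-concentration duplicate screen (25 uM), then concentration-response follow-up.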

[11] = biological target: Cellular tumor antigen p53 (Homo sapiens) (UniProt P04637); assay: TOX21_p53_BLA_p3_ratio: Tox21 HCT-116 p53 Agonism Beta-lactamase Assay, Ratio, Phase 3 (AID 2283596)
Method in brief: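 HCT116 p53-bla cells (4000/well) given compound in DMSO (217-fold dilution) after 5 h, incubated 16 h at 37C. CCF4-AM substrate 2 h at room temperature; 460/530 nm emission ratio, gain fitted against DMSO.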

[12] = biological target: Cellular tumor antigen p53 (Homo sapiens) (UniProt P04637); assay: TOX21_p53_BLA_p4_ratio: Tox21 HCT-116 p53 Agonism Beta-lactamase Assay, Ratio, Phase 4 (AID 2283601)
Method in brief: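 HCT-116 p53 beta-lactamase reporter cells (4000/well) preincubated 5 h, then compound (217-fold dilution of DMSO stock) for 16 h at 37C. CCF4-AM substrate added 2 h at room temperature; 460/530 nm emission ratio fitted upward versus DMSO.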

[13] = biological target: Nuclear receptor subfamily 1 group I member 2 (Homo sapiens) (UniProt O75469); assay: ATG_PXR_TRANS: Attagene TRANS-FACTORIAL HepG2 Assay for human Pregnane X Receptor (PXR) (AID 2283008)
Method in brief: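 HepG2 cells transiently transfected with multiple reporter units, here a PXR-GAL4 chimera driving a GAL4-UAS reporter; 24 h compound exposure. Reporter mRNA measured by RT-PCR, FAM labelling and capillary electrophoresis; gain of signal fitted against DMSO baseline.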

[14] = biological target: Retinoic acid receptor RXR-alpha (Homo sapiens) (UniProt P19793); assay: OT_NURR1_NURR1RXRa_0480: Odyssey Thera (OT) 8-hour HEK293T Protein Complementation Assay for Nurr1/retinoid X receptor (RXR) (AID 2283385)
Method in brief: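 HEK293T cells expressing Nurr1 and RXRα fused to reporter fragments were dosed with compound for 8 hours. Complex formation was read as fluorescence intensity and analysed as gain of signal against DMSO as baseline.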

[15] = biological target: Retinoic acid receptor RXR-alpha (Homo sapiens) (UniProt P19793); assay: OT_NURR1_NURR1RXRa_1440: Odyssey Thera (OT) 24-hour HEK293T Protein Complementation Assay for Nurr1/retinoid X receptor (RXR) (AID 2283386)
Method in brief: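 HEK293T cells were dosed with compound and read 24 h later by fluorescence intensity in a protein-fragment complementation format, where Nurr1–RXRα interaction reconstitutes a split reporter. Activity was fitted as gain of signal relative to DMSO baseline.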

[16] = biological target: Cellular tumor antigen p53 (Homo sapiens) (UniProt P04637); assay: TOX21_p53_BLA_p2_ratio: Tox21 HCT-116 p53 Agonism Beta-lactamase Assay, Ratio, Phase 2 (AID 2283592)
Method in brief: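 In this cell-based reporter format, HCT116 cells were dosed with chemicals delivered from DMSO by 217-fold dilution and incubated 16 h at 37C. Emission at 460 and 530 nm after 2 h CCF4-AM loading provided the ratio, fitted upward versus DMSO.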

[17] = CCTE_Harrill_HTTr_CellCount_MCF7: CCTE's Cell Proliferation Assessment for the High-Throughput Transcriptomics (HTTr) Platform, Harrill Lab (AID 2284012);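 note: cells exposed to compound for six hours; intended direction is loss of nuclei count meaning fewer cells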
Method in brief: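 MCF-7 cells were exposed for 6 h to an eight-point dilution series; Hoechst-labeled nuclei were counted by high content imaging. Curves were fitted bidirectionally against DMSO as negative control and baseline, with signal loss indicating reduced cell count.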

[18] = ATG_XTT_Cytotoxicity: Cytotoxicity Assessment in the Attagene TRANS-FACTORIAL HepG2 Assay (AID 2283584);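 for AC50: cells exposed to compound for 24 h before reading; active means loss of viability signal versus DMSO baseline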
Method in brief: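 XTT readout of cell number in transfected HepG2 cells, 24 h post-dosing; DMSO serves as negative control and baseline, with activity taken as loss of viability signal.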

[19] = biological target: Cellular tumor antigen p53 (Homo sapiens) (UniProt P04637); assay: TOX21_p53_BLA_p5_ratio: Tox21 HCT-116 p53 Agonism Beta-lactamase Assay, Ratio, Phase 5 (AID 2283599)
Method in brief: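 HCT-116 p53-bla cells (4000/well) plated 5 h, dosed with compound (217-fold DMSO dilution) for 16 h at 37 C; CCF4-AM substrate 2 h at room temperature. Activity is the 460/530 nm emission ratio (405 nm excitation), fitted in gain-of-signal direction versus DMSO.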

SMILES: CC(=O)c1ccc2ccccc2c1
- outcome [1]: inactive
- AC50 [2]: inconclusive: 100 µM
- AC50 [3]: inconclusive: 159 µM
- outcome [4]: inactive
- outcome [5]: inactive
- AC50 [6]: inconclusive: 0.00027 µM

SMILES: NC(=O)NC1NC(=O)NC1=O (centres undefined)
- AC50 [7]: inconclusive: 1.03 µM
- AC50 [8]: inconclusive: 100 µM
- outcome [4]: inactive
- AC50 [9]: inconclusive: 100 µM
- outcome [10]: inactive
- AC50 [11]: inconclusive: 46.1 µM and inconclusive: 83.9 µM
- AC50 [12]: inconclusive: 45.7 µM

SMILES: O=C(O)CCCCCCCC(=O)O
- AC50 [13]: inconclusive: 100 µM
- AC50 [9]: inconclusive: 100 µM
- AC50 [5]: inconclusive: 25 µM
- AC50 [14]: inconclusive: 12.5 µM
- outcome [15]: inactive
- AC50 [16]: inconclusive: 45.9 µM
- AC50 [12]: inconclusive: 46.1 µM
- AC50 [17]: inconclusive: 50 µM

SMILES: CC(=O)S[C@H](C(=O)N[C@H]1Cc2ccccc2[C@H]2CCC[C@@H](C(=O)O)N2C1=O)C(C)C
- outcome [1]: inactive
- AC50 [2]: inconclusive: 100 µM
- AC50 [3]: inconclusive: 0.61 µM
- AC50 [4]: inconclusive: 100 µM
- AC50 [9]: inconclusive: 26.2 µM
- AC50 [15]: inconclusive: 50 µM
- outcome [16]: inactive
- outcome [11]: inactive
- outcome [17]: inactive

SMILES: CCCCOCCOCCOC(=O)CCCCC(=O)OCCOCCOCCCC
- AC50 [4]: inconclusive: 179 µM

SMILES: C=CC(=O)NCOCC(C)C
- outcome [2]: inactive
- AC50 [4]: inconclusive: 100 µM
- AC50 [16]: inconclusive: 46.1 µM
- AC50 [11]: inconclusive: 46.1 µM
- AC50 [19]: inconclusive: 46.1 µM

SMILES: COC(=O)Cc1cccc2ccccc12
- AC50 [3]: inconclusive: 0.145 µM
- outcome [9]: inactive
- outcome [18]: inactive
- outcome [19]: inactive
- outcome [12]: inactive

Reference: PubChem BioAssay (EPA / NIEHS)
